This is one part of the list. The calls rarely recur for the same compound in another form.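 Kinases were expressed as nanoluciferase fusions in K562 cells and luminescence was read every 4 h between 2 and 18 h as percent of control, DMSO set to 100% and a positive control to 0%. A time point counts as decreased when the signal drops significantly (2 sigma). The hit call is the authors' own, does not follow from the count of time points alone, and its rule is not shown.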
Key:
Test in all cases: kinase-Nluc reporter destabilization hit call (1 = scored as downregulated) (binary); higher = compound decreases kinase abundance
Settings in all cases: K562, 2-18 h
IRAK3 = IRAK3 (UniProt Q9Y616)
JAK1 = JAK1 (UniProt P23458)
LIMK1 = LIMK1 (UniProt P53667)
LIMK2 = LIMK2 (UniProt P53671)
LMTK2 = LMTK2 (UniProt Q8IWU2)
LYN = LYN (UniProt P07948)
MAP2K1 = MAP2K1 (UniProt Q02750)
MAP2K2 = MAP2K2 (UniProt P36507)
MAP4K2 = MAP4K2 (UniProt Q12851)
LCK = LCK (UniProt P06239)

Protein sequences, listed by entry. Tags and fused reporters are not part of them. Lines headed by an entry give the natural chain unless they say otherwise; changes in a name come on top.
UniProt Q9Y616: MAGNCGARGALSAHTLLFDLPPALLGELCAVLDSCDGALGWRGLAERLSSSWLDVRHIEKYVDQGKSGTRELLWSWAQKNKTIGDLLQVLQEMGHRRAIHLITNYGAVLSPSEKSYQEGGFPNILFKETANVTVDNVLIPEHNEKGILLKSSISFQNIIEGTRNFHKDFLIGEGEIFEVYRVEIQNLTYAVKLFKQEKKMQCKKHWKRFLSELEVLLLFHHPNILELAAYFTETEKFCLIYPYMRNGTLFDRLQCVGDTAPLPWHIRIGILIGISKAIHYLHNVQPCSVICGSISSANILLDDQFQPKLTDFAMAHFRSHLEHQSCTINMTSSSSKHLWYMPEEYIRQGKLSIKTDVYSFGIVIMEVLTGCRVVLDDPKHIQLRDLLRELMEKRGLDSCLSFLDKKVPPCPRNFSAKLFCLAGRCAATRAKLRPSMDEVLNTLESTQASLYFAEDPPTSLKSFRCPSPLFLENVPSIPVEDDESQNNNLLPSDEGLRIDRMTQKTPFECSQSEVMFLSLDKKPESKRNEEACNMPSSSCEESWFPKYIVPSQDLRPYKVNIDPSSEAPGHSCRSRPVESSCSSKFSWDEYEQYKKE
UniProt P23458: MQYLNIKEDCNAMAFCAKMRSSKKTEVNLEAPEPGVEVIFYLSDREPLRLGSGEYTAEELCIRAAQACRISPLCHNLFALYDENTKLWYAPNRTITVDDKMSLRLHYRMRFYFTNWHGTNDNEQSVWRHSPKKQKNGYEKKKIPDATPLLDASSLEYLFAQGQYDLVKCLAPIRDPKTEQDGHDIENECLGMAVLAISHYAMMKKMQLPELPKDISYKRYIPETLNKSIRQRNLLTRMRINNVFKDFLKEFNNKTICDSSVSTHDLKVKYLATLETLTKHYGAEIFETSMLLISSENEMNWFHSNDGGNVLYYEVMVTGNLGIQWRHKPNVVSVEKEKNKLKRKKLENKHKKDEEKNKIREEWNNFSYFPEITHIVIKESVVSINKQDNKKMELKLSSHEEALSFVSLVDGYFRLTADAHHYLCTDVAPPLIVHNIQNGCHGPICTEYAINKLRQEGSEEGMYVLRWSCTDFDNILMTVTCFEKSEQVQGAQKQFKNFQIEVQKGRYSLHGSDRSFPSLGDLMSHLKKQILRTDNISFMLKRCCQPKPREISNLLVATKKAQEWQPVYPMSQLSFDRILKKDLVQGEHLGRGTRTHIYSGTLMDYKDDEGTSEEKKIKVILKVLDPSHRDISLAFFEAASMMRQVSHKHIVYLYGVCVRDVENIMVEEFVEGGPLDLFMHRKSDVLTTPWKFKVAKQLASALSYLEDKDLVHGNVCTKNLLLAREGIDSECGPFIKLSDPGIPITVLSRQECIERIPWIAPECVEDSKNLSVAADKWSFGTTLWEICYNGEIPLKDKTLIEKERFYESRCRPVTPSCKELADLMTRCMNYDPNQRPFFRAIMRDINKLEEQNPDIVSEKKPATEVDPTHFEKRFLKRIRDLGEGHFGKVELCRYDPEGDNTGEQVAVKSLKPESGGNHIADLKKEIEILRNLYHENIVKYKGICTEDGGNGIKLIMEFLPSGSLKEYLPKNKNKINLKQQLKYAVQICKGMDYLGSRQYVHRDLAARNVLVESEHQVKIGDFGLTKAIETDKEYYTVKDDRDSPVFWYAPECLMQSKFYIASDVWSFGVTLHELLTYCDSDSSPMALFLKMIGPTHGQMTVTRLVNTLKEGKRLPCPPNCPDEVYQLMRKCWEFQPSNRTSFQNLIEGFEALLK
UniProt P53667: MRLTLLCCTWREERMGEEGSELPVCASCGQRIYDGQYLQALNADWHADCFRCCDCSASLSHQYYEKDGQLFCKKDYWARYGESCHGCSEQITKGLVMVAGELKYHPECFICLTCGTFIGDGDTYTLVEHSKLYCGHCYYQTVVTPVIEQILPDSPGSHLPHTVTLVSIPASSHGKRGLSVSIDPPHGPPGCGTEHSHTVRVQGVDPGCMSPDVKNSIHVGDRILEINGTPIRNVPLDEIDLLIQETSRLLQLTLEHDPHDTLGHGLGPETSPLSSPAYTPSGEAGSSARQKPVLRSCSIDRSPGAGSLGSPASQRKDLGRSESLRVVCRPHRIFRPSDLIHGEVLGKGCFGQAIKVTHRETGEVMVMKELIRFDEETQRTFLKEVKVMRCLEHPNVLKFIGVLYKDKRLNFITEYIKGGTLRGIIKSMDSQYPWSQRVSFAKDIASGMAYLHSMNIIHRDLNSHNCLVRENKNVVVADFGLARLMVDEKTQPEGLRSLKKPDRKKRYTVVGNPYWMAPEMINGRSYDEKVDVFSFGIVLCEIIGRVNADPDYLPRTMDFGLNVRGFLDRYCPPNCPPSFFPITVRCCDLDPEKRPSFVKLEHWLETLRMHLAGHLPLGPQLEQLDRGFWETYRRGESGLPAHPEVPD
UniProt P53671: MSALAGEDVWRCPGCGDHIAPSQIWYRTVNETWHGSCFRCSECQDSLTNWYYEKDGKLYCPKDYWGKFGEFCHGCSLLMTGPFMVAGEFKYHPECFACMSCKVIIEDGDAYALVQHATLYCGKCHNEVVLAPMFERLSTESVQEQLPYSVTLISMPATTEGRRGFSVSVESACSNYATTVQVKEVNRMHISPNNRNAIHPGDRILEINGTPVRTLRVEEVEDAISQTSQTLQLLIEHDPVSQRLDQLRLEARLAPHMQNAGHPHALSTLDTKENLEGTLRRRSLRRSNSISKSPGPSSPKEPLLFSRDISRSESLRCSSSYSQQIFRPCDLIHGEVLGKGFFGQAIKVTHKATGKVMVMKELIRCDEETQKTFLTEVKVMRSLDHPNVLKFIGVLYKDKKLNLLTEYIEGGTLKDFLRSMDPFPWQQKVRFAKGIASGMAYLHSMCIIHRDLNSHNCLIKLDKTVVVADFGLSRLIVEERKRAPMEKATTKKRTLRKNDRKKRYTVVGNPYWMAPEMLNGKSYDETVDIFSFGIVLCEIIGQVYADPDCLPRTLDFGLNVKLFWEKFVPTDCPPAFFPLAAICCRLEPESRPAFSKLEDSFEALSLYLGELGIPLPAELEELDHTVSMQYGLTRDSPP
UniProt Q8IWU2: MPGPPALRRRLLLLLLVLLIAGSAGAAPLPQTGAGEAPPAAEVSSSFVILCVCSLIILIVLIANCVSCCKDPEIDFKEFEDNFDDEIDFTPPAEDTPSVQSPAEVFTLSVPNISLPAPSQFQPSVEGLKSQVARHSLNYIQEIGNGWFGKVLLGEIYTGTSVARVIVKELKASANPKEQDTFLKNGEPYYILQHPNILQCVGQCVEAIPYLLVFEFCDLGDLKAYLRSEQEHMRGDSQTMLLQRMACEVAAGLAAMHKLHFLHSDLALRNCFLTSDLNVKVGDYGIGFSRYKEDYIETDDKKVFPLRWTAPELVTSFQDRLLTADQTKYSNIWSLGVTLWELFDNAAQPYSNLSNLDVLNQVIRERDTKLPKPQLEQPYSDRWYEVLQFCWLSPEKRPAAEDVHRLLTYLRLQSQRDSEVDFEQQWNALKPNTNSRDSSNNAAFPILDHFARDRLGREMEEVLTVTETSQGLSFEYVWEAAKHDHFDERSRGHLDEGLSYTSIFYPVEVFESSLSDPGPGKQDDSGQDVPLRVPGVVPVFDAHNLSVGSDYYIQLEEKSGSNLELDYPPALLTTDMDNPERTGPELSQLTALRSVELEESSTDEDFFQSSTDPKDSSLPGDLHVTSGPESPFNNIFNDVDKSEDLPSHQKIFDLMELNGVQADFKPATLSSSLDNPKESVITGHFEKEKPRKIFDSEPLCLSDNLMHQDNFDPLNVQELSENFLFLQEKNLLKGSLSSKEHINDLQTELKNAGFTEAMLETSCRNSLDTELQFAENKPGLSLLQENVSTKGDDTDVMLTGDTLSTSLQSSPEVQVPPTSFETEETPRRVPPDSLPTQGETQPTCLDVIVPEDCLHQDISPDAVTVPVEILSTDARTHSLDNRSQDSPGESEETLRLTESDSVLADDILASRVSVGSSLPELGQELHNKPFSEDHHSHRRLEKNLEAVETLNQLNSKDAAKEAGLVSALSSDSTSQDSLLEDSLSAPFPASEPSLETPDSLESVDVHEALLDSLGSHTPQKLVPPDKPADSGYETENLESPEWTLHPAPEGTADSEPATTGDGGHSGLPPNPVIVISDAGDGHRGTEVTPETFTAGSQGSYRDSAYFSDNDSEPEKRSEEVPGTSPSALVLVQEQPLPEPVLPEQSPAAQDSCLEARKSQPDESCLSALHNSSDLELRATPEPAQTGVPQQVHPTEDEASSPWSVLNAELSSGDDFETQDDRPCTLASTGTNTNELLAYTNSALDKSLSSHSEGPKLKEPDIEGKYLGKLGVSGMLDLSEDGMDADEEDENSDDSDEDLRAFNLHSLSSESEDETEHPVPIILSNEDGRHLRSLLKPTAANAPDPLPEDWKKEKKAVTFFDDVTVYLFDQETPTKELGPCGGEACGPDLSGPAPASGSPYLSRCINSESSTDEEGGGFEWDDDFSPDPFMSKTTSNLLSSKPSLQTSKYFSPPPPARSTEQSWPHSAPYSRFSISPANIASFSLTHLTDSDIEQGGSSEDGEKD
UniProt P07948: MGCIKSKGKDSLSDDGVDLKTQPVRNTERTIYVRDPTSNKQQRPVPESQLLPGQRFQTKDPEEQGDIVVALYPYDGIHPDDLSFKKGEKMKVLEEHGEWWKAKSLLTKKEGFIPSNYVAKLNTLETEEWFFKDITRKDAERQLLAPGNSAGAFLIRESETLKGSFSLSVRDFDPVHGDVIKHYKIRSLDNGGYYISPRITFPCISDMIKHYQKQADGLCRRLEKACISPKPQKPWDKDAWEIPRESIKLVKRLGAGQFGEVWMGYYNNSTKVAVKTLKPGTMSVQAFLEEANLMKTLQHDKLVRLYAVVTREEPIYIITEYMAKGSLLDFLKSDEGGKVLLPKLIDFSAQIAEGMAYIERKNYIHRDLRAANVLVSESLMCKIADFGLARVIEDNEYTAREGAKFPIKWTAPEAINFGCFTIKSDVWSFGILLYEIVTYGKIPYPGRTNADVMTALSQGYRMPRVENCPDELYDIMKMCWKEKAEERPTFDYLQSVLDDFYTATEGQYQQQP
UniProt Q12851: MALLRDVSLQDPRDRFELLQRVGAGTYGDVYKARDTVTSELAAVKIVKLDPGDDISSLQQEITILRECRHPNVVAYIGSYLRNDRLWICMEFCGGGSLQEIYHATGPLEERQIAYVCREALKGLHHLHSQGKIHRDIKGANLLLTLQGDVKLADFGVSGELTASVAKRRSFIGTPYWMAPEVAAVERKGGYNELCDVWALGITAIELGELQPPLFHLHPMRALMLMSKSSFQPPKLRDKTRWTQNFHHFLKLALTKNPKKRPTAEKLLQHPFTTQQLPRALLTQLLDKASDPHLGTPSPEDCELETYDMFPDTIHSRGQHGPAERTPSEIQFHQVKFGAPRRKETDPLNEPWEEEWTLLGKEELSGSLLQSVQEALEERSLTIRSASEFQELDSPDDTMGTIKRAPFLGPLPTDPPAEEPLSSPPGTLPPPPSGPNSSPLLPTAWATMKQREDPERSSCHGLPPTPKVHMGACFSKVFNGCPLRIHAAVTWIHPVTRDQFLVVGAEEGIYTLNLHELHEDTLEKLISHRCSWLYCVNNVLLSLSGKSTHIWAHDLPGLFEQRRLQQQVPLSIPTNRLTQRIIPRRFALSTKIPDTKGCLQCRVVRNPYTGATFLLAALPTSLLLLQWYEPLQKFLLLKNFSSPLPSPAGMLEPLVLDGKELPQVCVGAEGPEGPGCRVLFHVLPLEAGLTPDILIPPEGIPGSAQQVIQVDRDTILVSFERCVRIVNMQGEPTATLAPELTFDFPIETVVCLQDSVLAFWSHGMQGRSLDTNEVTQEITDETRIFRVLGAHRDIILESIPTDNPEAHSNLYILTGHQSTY
UniProt P06239: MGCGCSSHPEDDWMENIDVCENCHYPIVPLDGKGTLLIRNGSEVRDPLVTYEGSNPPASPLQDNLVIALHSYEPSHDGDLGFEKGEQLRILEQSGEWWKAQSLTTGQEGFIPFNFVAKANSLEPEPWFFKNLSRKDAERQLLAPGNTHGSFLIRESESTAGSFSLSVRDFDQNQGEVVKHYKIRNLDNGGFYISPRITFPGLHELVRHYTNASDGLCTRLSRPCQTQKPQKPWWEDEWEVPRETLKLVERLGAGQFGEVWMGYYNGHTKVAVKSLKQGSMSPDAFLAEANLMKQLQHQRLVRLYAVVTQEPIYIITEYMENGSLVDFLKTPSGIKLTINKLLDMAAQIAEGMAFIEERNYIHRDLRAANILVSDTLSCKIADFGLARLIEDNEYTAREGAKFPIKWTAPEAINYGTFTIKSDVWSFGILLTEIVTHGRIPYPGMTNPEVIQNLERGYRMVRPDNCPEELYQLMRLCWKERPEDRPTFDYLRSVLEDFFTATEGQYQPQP

## O=C1NCCc2[nH]c(-c3ccncc3)cc21
IRAK3; 2.5 µM
  kinase-Nluc reporter destabilization hit call: inactive: 0
JAK1; 2.5 µM
  kinase-Nluc reporter destabilization hit call: inactive: 0
LIMK1; 2.5 µM
  kinase-Nluc reporter destabilization hit call: inactive: 0
LIMK2; 2.5 µM
  kinase-Nluc reporter destabilization hit call: inactive: 0
LMTK2; 2.5 µM
  kinase-Nluc reporter destabilization hit call: inactive: 0
LYN; 2.5 µM
  kinase-Nluc reporter destabilization hit call: inactive: 0
MAP2K1; 2.5 µM
  kinase-Nluc reporter destabilization hit call: inactive: 0
MAP2K2; 2.5 µM
  kinase-Nluc reporter destabilization hit call: inactive: 0
MAP4K2; 2.5 µM
  kinase-Nluc reporter destabilization hit call: inactive: 0

## Nc1ncccc1-c1nc2ccc(-c3ccccc3)nc2n1-c1ccc(C2(N)CCC2)cc1 [Miransertib]
IRAK3; 10 µM
  kinase-Nluc reporter destabilization hit call: inactive: 0
JAK1; 10 µM
  kinase-Nluc reporter destabilization hit call: inactive: 0
LCK; 10 µM
  kinase-Nluc reporter destabilization hit call: inactive: 0
LIMK1; 10 µM
  kinase-Nluc reporter destabilization hit call: active: 1
LIMK2; 10 µM
  kinase-Nluc reporter destabilization hit call: inactive: 0
LMTK2; 10 µM
  kinase-Nluc reporter destabilization hit call: inactive: 0
LYN; 10 µM
  kinase-Nluc reporter destabilization hit call: inactive: 0
MAP2K1; 10 µM
  kinase-Nluc reporter destabilization hit call: inactive: 0
MAP2K2; 10 µM
  kinase-Nluc reporter destabilization hit call: inactive: 0
MAP4K2; 10 µM
  kinase-Nluc reporter destabilization hit call: inactive: 0

## Cc1[nH]c(/C=C2\C(=O)Nc3ccc(F)cc32)c(C)c1C(=O)NC[C@H](O)CN1CCOCC1
IRAK3; 2.5 µM
  kinase-Nluc reporter destabilization hit call: inactive: 0
LCK; 2.5 µM
  kinase-Nluc reporter destabilization hit call: inactive: 0
LIMK1; 2.5 µM
  kinase-Nluc reporter destabilization hit call: inactive: 0
LIMK2; 2.5 µM
  kinase-Nluc reporter destabilization hit call: inactive: 0
LMTK2; 2.5 µM
  kinase-Nluc reporter destabilization hit call: inactive: 0
LYN; 2.5 µM
  kinase-Nluc reporter destabilization hit call: inactive: 0
MAP2K1; 2.5 µM
  kinase-Nluc reporter destabilization hit call: inactive: 0
MAP2K2; 2.5 µM
  kinase-Nluc reporter destabilization hit call: inactive: 0
MAP4K2; 2.5 µM
  kinase-Nluc reporter destabilization hit call: inactive: 0

## O=C(Nc1cccc(Cl)c1)Nc1ncc(CCNc2ncnc3ccsc23)s1 [SNS-314 (mesylate)]
IRAK3; 10 µM
  kinase-Nluc reporter destabilization hit call: inactive: 0
JAK1; 10 µM
  kinase-Nluc reporter destabilization hit call: inactive: 0
LIMK1; 10 µM
  kinase-Nluc reporter destabilization hit call: inactive: 0
LIMK2; 10 µM
  kinase-Nluc reporter destabilization hit call: inactive: 0
LMTK2; 10 µM
  kinase-Nluc reporter destabilization hit call: inactive: 0
LYN; 10 µM
  kinase-Nluc reporter destabilization hit call: inactive: 0
MAP2K1; 10 µM
  kinase-Nluc reporter destabilization hit call: inactive: 0
MAP2K2; 10 µM
  kinase-Nluc reporter destabilization hit call: inactive: 0
MAP4K2; 10 µM
  kinase-Nluc reporter destabilization hit call: inactive: 0

## Cc1cc2c(F)c(Oc3ncnn4cc(OC[C@@H](C)O)c(C)c34)ccc2[nH]1 [Brivanib]
IRAK3; 10 µM
  kinase-Nluc reporter destabilization hit call: inactive: 0
JAK1; 10 µM
  kinase-Nluc reporter destabilization hit call: inactive: 0
LIMK1; 10 µM
  kinase-Nluc reporter destabilization hit call: inactive: 0
LIMK2; 10 µM
  kinase-Nluc reporter destabilization hit call: inactive: 0
LMTK2; 10 µM
  kinase-Nluc reporter destabilization hit call: inactive: 0
LYN; 10 µM
  kinase-Nluc reporter destabilization hit call: inactive: 0
MAP2K1; 10 µM
  kinase-Nluc reporter destabilization hit call: inactive: 0
MAP2K2; 10 µM
  kinase-Nluc reporter destabilization hit call: inactive: 0
MAP4K2; 10 µM
  kinase-Nluc reporter destabilization hit call: inactive: 0

## Cc1cc(Nc2cc(N3CCN(C)CC3)nc(/C=C/c3ccccc3)n2)n[nH]1
IRAK3; 2.5 µM
  kinase-Nluc reporter destabilization hit call: inactive: 0
JAK1; 2.5 µM
  kinase-Nluc reporter destabilization hit call: inactive: 0
LIMK1; 2.5 µM
  kinase-Nluc reporter destabilization hit call: inactive: 0
LIMK2; 2.5 µM
  kinase-Nluc reporter destabilization hit call: inactive: 0
LMTK2; 2.5 µM
  kinase-Nluc reporter destabilization hit call: inactive: 0
LYN; 2.5 µM
  kinase-Nluc reporter destabilization hit call: inactive: 0
MAP2K1; 2.5 µM
  kinase-Nluc reporter destabilization hit call: inactive: 0
MAP2K2; 2.5 µM
  kinase-Nluc reporter destabilization hit call: inactive: 0
MAP4K2; 2.5 µM
  kinase-Nluc reporter destabilization hit call: inactive: 0

## O=C(Nc1cccc(Nc2nccc(Nc3cccc(C(F)(F)F)c3)n2)c1)C1CC1 [Aurora kinase inhibitor-3]
IRAK3; 2.5 µM
  kinase-Nluc reporter destabilization hit call: inactive: 0
JAK1; 2.5 µM
  kinase-Nluc reporter destabilization hit call: inactive: 0
LIMK1; 2.5 µM
  kinase-Nluc reporter destabilization hit call: inactive: 0
LIMK2; 2.5 µM
  kinase-Nluc reporter destabilization hit call: inactive: 0
LMTK2; 2.5 µM
  kinase-Nluc reporter destabilization hit call: inactive: 0
LYN; 2.5 µM
  kinase-Nluc reporter destabilization hit call: inactive: 0
MAP2K1; 2.5 µM
  kinase-Nluc reporter destabilization hit call: inactive: 0
MAP2K2; 2.5 µM
  kinase-Nluc reporter destabilization hit call: inactive: 0
MAP4K2; 2.5 µM
  kinase-Nluc reporter destabilization hit call: inactive: 0

## CC1(C)CNc2cc(NC(=O)c3cccnc3NCc3ccncc3)ccc21 [Motesanib (Diphosphate)]
IRAK3; 2.5 µM
  kinase-Nluc reporter destabilization hit call: inactive: 0
JAK1; 2.5 µM
  kinase-Nluc reporter destabilization hit call: inactive: 0
LIMK1; 2.5 µM
  kinase-Nluc reporter destabilization hit call: inactive: 0
LIMK2; 2.5 µM
  kinase-Nluc reporter destabilization hit call: inactive: 0
LMTK2; 2.5 µM
  kinase-Nluc reporter destabilization hit call: inactive: 0
MAP2K1; 2.5 µM
  kinase-Nluc reporter destabilization hit call: inactive: 0
MAP2K2; 2.5 µM
  kinase-Nluc reporter destabilization hit call: inactive: 0
MAP4K2; 2.5 µM
  kinase-Nluc reporter destabilization hit call: inactive: 0

## O=S(=O)(c1cccc2c(O)nccc12)N1CCCNCC1 [Hydroxyfasudil]
IRAK3; 10 µM
  kinase-Nluc reporter destabilization hit call: inactive: 0
JAK1; 10 µM
  kinase-Nluc reporter destabilization hit call: inactive: 0
LIMK1; 10 µM
  kinase-Nluc reporter destabilization hit call: inactive: 0
LIMK2; 10 µM
  kinase-Nluc reporter destabilization hit call: inactive: 0
LMTK2; 10 µM
  kinase-Nluc reporter destabilization hit call: inactive: 0
LYN; 10 µM
  kinase-Nluc reporter destabilization hit call: inactive: 0
MAP2K1; 10 µM
  kinase-Nluc reporter destabilization hit call: inactive: 0
MAP2K2; 10 µM
  kinase-Nluc reporter destabilization hit call: inactive: 0
MAP4K2; 10 µM
  kinase-Nluc reporter destabilization hit call: inactive: 0
